This passage reports binding signal results from PMC7819943, “Rice protein-binding microarrays: a tool to detect cis-acting elements near promoter regions in rice”.

The other results are listed elsewhere or left out.

This experiment concerns the target T1, OsSMF1 (Oryza sativa, UniProt Q6ZLB0 1-436).
T1 sequence: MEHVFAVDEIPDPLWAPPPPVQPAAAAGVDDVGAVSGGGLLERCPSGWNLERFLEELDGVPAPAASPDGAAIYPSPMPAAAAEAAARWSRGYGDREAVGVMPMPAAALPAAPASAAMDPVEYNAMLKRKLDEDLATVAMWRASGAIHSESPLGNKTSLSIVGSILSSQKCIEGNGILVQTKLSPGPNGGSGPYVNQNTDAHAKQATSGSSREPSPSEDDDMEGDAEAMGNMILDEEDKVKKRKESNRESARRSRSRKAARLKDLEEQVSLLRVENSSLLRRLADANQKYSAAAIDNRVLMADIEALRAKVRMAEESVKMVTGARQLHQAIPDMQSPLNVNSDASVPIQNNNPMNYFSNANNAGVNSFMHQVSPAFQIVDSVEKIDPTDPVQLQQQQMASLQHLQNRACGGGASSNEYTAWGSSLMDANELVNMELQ
Kind of experiment: protein-binding microarray (RPBM); PBS, 2% BSA, 51.3 ng/ul salmon testes DNA, 50 uM zinc acetate, 200 nM TF, 25 C, 1 h; high values mean tight binding. Conditions: protein: recombinant; tags: N-terminal polyhistidine and DsRed monomer fusion (pET32a); chain copies: 2; label: CyDye5-dUTP incorporated in the synthesized complementary strand; 3' TTTTT single-stranded linker to array surface; dsDNA, one strand shown. In outline: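 Binding signal here means per-feature fluorescence intensity in arbitrary units. The values were read on an Axon 4000B scanner after a custom Agilent array, double-stranded by primer extension with Cy5-dUTP, was incubated with 200 nM protein at 25 °C for 1 h in PBS with 2% BSA, salmon testes DNA and 50 µM zinc acetate, then washed. The proteins were transcription factors with an N-terminal polyhistidine tag and DsRed, expressed in E. coli BL21-CodonPlus and purified on Ni–NTA.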
For “CCATCAGCCGACAACGTGTCATGTTCACGAGGGCGACTCGCGGAGTCACCTAGTGCAG”, the binding signal was 4890 fluorescence intensity (a.u.).

Take “CGGAACGTCCGCGTCAGACTAGTGCAGTGCAGCCCGCAACCGGAGTCACCTAGTGCAG”: the binding signal is 5110 fluorescence intensity (a.u.). Then “TGCTCCACGGAGGCGCCAGCGTGGACAAGAGTAGTTTTACCGGAGTCACCTAGTGCAG”, with 4190 fluorescence intensity (a.u.); and “TAACTAATTAGTTAACTAATCGTCAATGTCACTAGCTTCTCGGAGTCACCTAGTGCAG”, with 3490 fluorescence intensity (a.u.). The result for “ATTCGGATTCCTCCAGCTACCGACACGCCGACACTTGTCACGGAGTCACCTAGTGCAG” reads 3820 fluorescence intensity (a.u.); that for “AAACCACCCCACCTTGCATACTATGTTCATCCTCGTGTCACGGAGTCACCTAGTGCAG”, 4020 fluorescence intensity (a.u.). In the case of “TGTATACTTCTGTACCTGATTACACCTGTAAATCTTGAACCGGAGTCACCTAGTGCAG”, the binding signal is 3180 fluorescence intensity (a.u.).

For “GAGTGGGGAGAGGGAGATGACATGTGGGGCCCACGGGCCTCGGAGTCACCTAGTGCAG”, the binding signal was 5310 fluorescence intensity (a.u.). “AGCATCCGCCAGGTGTCCACCGTTTTACCGGCACCTGCCTCGGAGTCACCTAGTGCAG”: the binding signal was 4120 fluorescence intensity (a.u.).

Regarding “CATTGAAAGATTCCTTTGCCATATGTTCATATACGTCGAACGGAGTCACCTAGTGCAG”, the binding signal was 26900 fluorescence intensity (a.u.). The result for “AGGCGTGACGCTTGCGTGGCTGTGTGCTAGTGTACGTGTGCGGAGTCACCTAGTGCAG” reads 11900 fluorescence intensity (a.u.); that for “TCGGGCCCGATCCCTCCTCGAGGGAGGGCCACGTGGCGCCCGGAGTCACCTAGTGCAG”, 20700 fluorescence intensity (a.u.); that for “ACCCGCGCACGACGCAGACGCCGCGCGCGTCACGAGGCCCCGGAGTCACCTAGTGCAG”, 4910 fluorescence intensity (a.u.). The result for “CGTGATAAAATGCTTTAGTAAACACGATTTCGCCACGTTACGGAGTCACCTAGTGCAG” reads 3650 fluorescence intensity (a.u.); that for “CAAATCAAATTACCACATAAGCACCACGTCAATGCCACGTCGGAGTCACCTAGTGCAG”, 22200 fluorescence intensity (a.u.); that for “ATTCGCCATTTCCGCCCACTGCCACGCCAACGCCACTGCTCGGAGTCACCTAGTGCAG”, 4960 fluorescence intensity (a.u.). In the case of “TGGACGGACGGAGTATAACGCTATCAGTGACTAAGCTACTCGGAGTCACCTAGTGCAG”, the binding signal is 3260 fluorescence intensity (a.u.). For the sequence “TCCTCCTCTCCTCCACACATCCAGGCAGGCAACACAAGAACGGAGTCACCTAGTGCAG”, the binding signal is 41800 fluorescence intensity (a.u.). Then “TAAATACTGGTGGGTCCCACATGTCATCGACAACCTATCTCGGAGTCACCTAGTGCAG”, with 3420 fluorescence intensity (a.u.). For the sequence “AAGCTGGAATACATCCAGTGTTCCACGTAAGCCAGCTGAACGGAGTCACCTAGTGCAG”, the binding signal was 7900 fluorescence intensity (a.u.). With “CAATGGCCACGCCGTCTTGCAACCGCACTACTGCAGTTACCGGAGTCACCTAGTGCAG”, the binding signal was 3350 fluorescence intensity (a.u.). The result for “CCTGCCAGCAGTACACGTCCATGGATCATCCAATATTAATCGGAGTCACCTAGTGCAG” reads 3350 fluorescence intensity (a.u.). As to “CCACCACCACCACCGCACCCTCGCCACCGCATCCCATATCCGGAGTCACCTAGTGCAG”, the binding signal was 3150 fluorescence intensity (a.u.). The result for “AACATTTCGAAACGGAGAGAGTATTACCTATTCGAGATTGCGGAGTCACCTAGTGCAG” reads 31900 fluorescence intensity (a.u.).

Regarding “AAAATAAAGCTGTGGATGAAATTGGATATAGATACATGGCCGGAGTCACCTAGTGCAG”, the binding signal was 15100 fluorescence intensity (a.u.). Then “CGCGCCGCCGGCCGCCGGCGATCCTCCCGCCGGAGCACGCCGGAGTCACCTAGTGCAG”, with 26500 fluorescence intensity (a.u.). The result for “TGACGGTGGCGGCTATGGCGGCGGCGGCGTCAGCTAGGTTCGGAGTCACCTAGTGCAG” reads 3690 fluorescence intensity (a.u.); that for “CGGCTAGGCTCCTCCCTCTCGCGGTGACGCGCCACAACGACGGAGTCACCTAGTGCAG”, 4970 fluorescence intensity (a.u.); that for “ATAAGTGCTCAAGCGTTCAATGTGACATGGCGTAAAATTTCGGAGTCACCTAGTGCAG”, 4150 fluorescence intensity (a.u.).

Consider “TGAATCGAGTTGCCAGCTATACATATCCTCTCCAAATCAACGGAGTCACCTAGTGCAG”, for which the binding signal was 3320 fluorescence intensity (a.u.). Then “TAGTTTTCCCGCTAGGCGCCACGACGGAATGGGCGCTACACGGAGTCACCTAGTGCAG”, with 3140 fluorescence intensity (a.u.); and “CCCCACGACGCCACGTACTCTCGGTCTCTCGCCCCGCGCCCGGAGTCACCTAGTGCAG”, with 11100 fluorescence intensity (a.u.). On to “ATGTCTTAAGCAAGTTTTGACATCCTCATTACAGTGCGGCCGGAGTCACCTAGTGCAG”, for which the binding signal was 3390 fluorescence intensity (a.u.).

“AGACTAGAAACTTTCGGCCCGTCATTCTCATATTTTCGAACGGAGTCACCTAGTGCAG”: the binding signal was 3250 fluorescence intensity (a.u.). Then “AGATGAGAGAGAAGAGCAGCGGGCTACAAATCTGTAGCCACGGAGTCACCTAGTGCAG”, with 3900 fluorescence intensity (a.u.). Then “ACGTGCAAGTTAAATTTTAACTCAGCGACCCACAACCCAACGGAGTCACCTAGTGCAG”, with 3410 fluorescence intensity (a.u.); and “TTGTTGACTACGAGTCAGACCTTCAGACCGCCATGTCGACCGGAGTCACCTAGTGCAG”, with 4020 fluorescence intensity (a.u.). On to “CGCCGCGAAGGCGCGAAGCCCCGTCACCGCGCGCGCGCGCCGGAGTCACCTAGTGCAG”, for which the binding signal is 5540 fluorescence intensity (a.u.). As to “AGAGACGGGAATCTCCACGGCGATCACGTCCACACCACACCGGAGTCACCTAGTGCAG”, the binding signal was 3180 fluorescence intensity (a.u.). Then “GTTGCATATGCCGTCACTTGTCACGTCTGCCATGCACGAACGGAGTCACCTAGTGCAG”, with 4460 fluorescence intensity (a.u.); and “GTGGAGGCGCGGTGGGGTGGGGAAGGAGTGTGTTTCGTGTCGGAGTCACCTAGTGCAG”, with 6590 fluorescence intensity (a.u.). The result for “GCACGTGGGCCAACACGGCATAGTCCGTTCGGTGAGTCGTCGGAGTCACCTAGTGCAG” reads 3740 fluorescence intensity (a.u.).
